In the supplement of paper PMC10849652 one finds log2 fold change data, which are given here for 33 targets.

Chains of the proteins cited; added tags and fusions are not shown. Lines headed by an entry give the natural chain unless they say otherwise; changes in a name come on top.
UniProt Q9P2E5: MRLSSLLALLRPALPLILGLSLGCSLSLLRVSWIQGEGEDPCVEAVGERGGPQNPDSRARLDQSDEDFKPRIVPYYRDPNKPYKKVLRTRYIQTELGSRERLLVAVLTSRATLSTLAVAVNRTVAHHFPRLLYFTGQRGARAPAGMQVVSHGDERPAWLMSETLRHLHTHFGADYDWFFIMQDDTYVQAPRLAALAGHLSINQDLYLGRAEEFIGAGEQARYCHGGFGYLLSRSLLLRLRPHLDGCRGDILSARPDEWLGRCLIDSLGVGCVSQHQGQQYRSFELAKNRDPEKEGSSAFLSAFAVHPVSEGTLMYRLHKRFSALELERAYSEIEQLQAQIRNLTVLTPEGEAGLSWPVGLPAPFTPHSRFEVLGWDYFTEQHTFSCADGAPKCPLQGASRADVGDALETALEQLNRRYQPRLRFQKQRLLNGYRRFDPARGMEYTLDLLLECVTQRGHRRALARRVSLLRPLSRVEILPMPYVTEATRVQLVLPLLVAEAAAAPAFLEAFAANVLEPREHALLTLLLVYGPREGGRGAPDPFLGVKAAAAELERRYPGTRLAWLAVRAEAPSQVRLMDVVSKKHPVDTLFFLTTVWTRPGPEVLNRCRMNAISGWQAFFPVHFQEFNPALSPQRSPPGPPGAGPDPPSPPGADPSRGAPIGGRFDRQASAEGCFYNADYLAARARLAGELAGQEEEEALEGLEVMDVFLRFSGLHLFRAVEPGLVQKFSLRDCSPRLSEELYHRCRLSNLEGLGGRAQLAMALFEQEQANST
UniProt Q96AJ1: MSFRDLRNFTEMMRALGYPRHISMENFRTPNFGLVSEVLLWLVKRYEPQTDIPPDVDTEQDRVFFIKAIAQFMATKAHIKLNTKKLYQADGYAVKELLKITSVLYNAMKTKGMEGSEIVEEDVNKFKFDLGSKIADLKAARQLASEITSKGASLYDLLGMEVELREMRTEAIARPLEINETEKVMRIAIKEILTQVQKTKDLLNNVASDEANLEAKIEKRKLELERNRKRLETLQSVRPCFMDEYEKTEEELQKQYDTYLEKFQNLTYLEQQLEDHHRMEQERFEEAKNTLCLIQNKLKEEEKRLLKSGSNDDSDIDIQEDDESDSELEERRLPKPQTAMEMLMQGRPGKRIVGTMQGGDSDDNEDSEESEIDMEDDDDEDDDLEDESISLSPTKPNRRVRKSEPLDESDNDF
UniProt P0C7P0: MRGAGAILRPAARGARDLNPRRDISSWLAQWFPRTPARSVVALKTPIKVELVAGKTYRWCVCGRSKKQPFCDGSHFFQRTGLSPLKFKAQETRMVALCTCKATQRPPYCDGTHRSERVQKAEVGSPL
UniProt Q96EP1: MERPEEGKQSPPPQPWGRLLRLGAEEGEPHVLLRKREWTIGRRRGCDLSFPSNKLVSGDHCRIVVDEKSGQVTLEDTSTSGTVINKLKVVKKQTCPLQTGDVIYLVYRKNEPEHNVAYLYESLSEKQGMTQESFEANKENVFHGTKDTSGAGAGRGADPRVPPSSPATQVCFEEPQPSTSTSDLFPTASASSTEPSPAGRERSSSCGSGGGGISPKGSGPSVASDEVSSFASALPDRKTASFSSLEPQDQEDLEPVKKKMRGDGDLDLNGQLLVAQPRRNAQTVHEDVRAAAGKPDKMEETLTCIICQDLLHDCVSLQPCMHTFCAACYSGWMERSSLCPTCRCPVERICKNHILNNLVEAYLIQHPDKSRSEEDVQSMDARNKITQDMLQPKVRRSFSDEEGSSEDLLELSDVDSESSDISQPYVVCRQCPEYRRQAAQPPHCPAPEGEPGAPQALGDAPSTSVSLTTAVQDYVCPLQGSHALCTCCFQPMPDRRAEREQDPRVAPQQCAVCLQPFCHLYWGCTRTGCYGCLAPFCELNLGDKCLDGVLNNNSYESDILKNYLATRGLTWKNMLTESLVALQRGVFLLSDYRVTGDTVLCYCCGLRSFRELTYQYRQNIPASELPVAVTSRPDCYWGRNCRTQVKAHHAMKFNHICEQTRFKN
UniProt O96017, whole entry, looked up: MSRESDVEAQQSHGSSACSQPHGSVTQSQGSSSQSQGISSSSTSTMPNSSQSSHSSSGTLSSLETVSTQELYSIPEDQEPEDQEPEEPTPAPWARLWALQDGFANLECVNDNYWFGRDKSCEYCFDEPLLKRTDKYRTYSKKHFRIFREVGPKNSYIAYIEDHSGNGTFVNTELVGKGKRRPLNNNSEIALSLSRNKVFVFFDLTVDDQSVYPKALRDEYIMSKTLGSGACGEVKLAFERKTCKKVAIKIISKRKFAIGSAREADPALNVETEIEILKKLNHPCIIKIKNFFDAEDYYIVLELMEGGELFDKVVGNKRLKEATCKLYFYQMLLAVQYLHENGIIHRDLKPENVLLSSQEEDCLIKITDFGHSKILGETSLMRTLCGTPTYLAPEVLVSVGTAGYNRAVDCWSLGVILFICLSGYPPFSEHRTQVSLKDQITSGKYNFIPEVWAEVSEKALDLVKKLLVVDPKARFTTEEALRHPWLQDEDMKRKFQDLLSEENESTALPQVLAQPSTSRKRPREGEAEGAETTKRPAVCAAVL
UniProt P30622: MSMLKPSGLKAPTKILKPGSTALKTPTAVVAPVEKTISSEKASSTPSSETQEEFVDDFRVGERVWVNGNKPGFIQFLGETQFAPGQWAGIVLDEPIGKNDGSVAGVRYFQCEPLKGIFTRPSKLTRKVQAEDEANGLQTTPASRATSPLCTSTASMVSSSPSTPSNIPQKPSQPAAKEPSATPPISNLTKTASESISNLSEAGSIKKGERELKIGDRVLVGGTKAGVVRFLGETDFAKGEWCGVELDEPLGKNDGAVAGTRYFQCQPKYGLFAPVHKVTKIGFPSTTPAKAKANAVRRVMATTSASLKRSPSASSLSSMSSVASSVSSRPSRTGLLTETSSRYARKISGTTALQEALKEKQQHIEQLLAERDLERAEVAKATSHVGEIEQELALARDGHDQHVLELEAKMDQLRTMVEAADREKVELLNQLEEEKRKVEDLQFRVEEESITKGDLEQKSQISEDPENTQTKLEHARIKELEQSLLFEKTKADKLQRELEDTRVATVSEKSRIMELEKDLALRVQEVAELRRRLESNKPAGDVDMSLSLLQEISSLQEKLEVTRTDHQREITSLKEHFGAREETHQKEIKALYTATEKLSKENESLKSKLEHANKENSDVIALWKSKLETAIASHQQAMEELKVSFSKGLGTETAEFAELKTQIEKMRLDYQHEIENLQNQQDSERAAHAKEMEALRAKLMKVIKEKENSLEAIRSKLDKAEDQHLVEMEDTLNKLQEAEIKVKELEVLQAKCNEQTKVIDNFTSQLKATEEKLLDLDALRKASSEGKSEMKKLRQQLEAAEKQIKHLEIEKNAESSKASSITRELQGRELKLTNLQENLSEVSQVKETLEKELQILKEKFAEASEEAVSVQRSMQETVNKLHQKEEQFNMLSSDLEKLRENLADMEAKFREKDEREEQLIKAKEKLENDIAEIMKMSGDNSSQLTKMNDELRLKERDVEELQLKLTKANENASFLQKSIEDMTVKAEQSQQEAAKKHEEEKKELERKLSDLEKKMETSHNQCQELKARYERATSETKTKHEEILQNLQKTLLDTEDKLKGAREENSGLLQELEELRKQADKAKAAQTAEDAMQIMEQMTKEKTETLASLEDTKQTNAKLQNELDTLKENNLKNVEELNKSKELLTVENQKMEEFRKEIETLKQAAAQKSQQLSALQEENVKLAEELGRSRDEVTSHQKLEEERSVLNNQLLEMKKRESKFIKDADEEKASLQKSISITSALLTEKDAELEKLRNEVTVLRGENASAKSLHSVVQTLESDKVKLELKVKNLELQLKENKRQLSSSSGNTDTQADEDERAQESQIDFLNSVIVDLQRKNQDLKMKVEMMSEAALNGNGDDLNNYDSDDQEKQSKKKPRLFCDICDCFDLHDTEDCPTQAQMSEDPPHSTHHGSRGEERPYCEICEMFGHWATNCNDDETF
UniProt Q9UDT6: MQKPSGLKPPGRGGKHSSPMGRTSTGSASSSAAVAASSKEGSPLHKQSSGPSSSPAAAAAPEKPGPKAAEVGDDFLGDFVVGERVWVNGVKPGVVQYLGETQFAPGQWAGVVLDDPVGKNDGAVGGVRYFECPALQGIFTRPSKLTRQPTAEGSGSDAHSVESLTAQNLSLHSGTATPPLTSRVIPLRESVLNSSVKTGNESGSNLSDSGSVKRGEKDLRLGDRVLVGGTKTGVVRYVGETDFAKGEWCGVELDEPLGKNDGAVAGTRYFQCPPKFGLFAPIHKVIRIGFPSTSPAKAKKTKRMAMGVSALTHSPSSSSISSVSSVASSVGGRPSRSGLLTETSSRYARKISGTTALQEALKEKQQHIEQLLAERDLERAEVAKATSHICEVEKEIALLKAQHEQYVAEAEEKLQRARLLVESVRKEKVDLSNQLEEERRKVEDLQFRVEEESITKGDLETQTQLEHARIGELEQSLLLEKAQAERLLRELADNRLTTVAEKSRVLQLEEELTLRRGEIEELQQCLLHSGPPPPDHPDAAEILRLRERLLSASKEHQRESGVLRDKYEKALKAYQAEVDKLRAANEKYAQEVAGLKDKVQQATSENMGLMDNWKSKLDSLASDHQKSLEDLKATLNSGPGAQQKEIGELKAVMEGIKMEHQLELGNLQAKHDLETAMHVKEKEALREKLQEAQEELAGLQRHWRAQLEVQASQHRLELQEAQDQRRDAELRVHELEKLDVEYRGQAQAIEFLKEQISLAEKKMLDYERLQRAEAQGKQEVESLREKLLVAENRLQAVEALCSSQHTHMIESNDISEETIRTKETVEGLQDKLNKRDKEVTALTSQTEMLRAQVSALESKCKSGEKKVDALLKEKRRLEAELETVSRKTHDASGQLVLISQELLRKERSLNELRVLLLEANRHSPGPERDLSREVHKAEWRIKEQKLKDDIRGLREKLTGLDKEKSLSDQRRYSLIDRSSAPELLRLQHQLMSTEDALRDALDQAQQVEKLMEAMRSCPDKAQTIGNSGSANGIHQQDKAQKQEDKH
UniProt P49759: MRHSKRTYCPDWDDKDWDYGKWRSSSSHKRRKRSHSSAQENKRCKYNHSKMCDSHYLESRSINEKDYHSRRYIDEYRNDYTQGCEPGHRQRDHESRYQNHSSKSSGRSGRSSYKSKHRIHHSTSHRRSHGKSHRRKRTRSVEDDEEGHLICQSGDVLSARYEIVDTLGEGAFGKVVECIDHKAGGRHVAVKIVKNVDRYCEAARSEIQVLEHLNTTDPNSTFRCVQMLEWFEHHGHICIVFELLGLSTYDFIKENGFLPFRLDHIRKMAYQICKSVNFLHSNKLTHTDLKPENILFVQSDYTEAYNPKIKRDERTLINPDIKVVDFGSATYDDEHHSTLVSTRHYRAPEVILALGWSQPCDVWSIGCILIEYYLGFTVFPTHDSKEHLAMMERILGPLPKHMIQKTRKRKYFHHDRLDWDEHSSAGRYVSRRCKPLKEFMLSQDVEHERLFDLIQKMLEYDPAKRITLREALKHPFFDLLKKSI
UniProt Q9NX76: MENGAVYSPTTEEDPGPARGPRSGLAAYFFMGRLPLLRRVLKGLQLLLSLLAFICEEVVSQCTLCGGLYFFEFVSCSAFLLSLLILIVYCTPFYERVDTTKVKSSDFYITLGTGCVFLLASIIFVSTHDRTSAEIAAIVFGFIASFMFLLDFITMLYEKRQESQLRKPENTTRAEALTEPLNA
UniProt Q8IZ52: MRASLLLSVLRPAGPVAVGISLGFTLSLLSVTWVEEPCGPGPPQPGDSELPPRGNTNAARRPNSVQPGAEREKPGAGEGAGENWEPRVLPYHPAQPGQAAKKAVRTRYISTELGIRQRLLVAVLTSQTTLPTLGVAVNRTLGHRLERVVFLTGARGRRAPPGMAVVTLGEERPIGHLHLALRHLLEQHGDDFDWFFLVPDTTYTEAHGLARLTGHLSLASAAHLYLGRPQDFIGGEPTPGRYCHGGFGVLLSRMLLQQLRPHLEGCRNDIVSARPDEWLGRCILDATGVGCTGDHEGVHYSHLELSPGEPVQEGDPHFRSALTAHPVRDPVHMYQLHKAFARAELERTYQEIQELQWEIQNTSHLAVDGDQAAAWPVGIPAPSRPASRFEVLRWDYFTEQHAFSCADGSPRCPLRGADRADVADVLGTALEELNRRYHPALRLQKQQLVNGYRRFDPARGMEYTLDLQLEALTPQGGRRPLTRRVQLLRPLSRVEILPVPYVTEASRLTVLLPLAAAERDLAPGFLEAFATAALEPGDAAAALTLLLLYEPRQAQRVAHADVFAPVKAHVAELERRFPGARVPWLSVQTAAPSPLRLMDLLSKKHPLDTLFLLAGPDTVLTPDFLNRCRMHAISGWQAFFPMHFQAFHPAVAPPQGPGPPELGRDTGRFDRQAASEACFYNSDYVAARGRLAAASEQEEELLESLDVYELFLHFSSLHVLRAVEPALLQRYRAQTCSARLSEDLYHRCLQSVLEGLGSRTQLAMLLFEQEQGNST
UniProt P0CG13, whole entry, looked up: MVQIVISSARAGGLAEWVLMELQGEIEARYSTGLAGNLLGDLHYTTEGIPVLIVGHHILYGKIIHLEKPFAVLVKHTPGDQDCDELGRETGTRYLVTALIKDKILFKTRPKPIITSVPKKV

This is one part of the list.

Compound in the first assay: C/C(=N\NC(=O)C1=CC(=CC=C1)S(=O)(=O)N2CCOCC2)/C3=C(C=CC(=C3)Cl)O
Put plainly: log2 fold change, soluble protein after heating vs DMSO (PISA); higher = thermal stabilisation; K562 lysate, 10 uM; active = over 0.2 and 3.5 SD of the protein, either way, in both replicates (recomputed). Summed up: (§1)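 Following dounce homogenisation of K562 pellets in PBS pH 7.4 with 1 mM MgCl2, crude extract at 1 mg/mL protein was incubated for 30 min with 10 μM compound. Aliquots were then heated for 3 min over 48°C-58°C and pooled, NP-40 was added to 0.5% at 4°C, and soluble protein was recovered as the supernatant at 21,000xg for 90 min. Channel-sum-equalised TMTpro 16plex LC-MS/MS quantified this protein. Each value, from duplicates, is a log-two fold change in thermal stability relative to solvent controls.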
Take CHPF2 (UniProt Q9P2E5): the log2 fold change was inactive: -0.264.
Still for that read-out and setting: the value for CHST10 (UniProt O43529) was inactive: -0.007; that for CLIP4 (UniProt Q8N3C7) was inactive: -0.026; that for CLUAP1 (UniProt Q96AJ1) was inactive: 0.011.
For CISD3 (UniProt P0C7P0), the log2 fold change is inactive: 0.004.
On to CLUAP1 (UniProt I3L2E1), for which the log2 fold change is inactive: 0.362.
For the target CLTA (UniProt P09496), the log2 fold change is inactive: -0.008.
On the same count and under the same terms, the figure for CKAP2L (UniProt Q8IYA6) is inactive: -0.022; for CLK3 (UniProt P49761) it is inactive: -0.198.
With CLTC (UniProt Q00610), the log2 fold change is inactive: 0.069.
Turning to CHD9 (UniProt Q3L8U1), the log2 fold change was inactive: 0.169.
For the target CLN6 (UniProt Q9NWW5), the log2 fold change was inactive: -0.046.
Turning to CMTM4 (UniProt Q8IZR5), the log2 fold change was inactive: -0.197.
Turning to CLIC6 (UniProt Q96NY7), the log2 fold change was inactive: -0.07.
On to CLINT1 isoform 3 (UniProt Q14677), for which the log2 fold change is inactive: -0.074.
On to CLASP1 isoform 4 (UniProt Q7Z460), for which the log2 fold change is inactive: -0.041.
On the same count and under the same terms, the figure for CHFR (UniProt Q96EP1) is inactive: 0.179; for CLN5 (UniProt O75503) it is inactive: 0.037; for CLCN6 isoform 5 (UniProt P51797) it is inactive: -0.008.
On to CHEK2 (UniProt O96017), for which the log2 fold change was inactive: -0.006.

Compound in another assay: C1=CC(=CC=C1C2=NC3=C(N2)C=C(C=C3)C(=O)N)OC4=CC=C(C=C4)Cl
The description is as above. The essentials: as §1
With CHPF2 (UniProt Q9P2E5), the log2 fold change was inactive: 0.
Turning to CHST10 (UniProt O43529), the log2 fold change was inactive: -0.103.
On to CLIP4 (UniProt Q8N3C7), for which the log2 fold change was inactive: -0.108.
Regarding CLN8 (UniProt Q9UBY8), the log2 fold change was inactive: 0.114.
With CLUAP1 (UniProt Q96AJ1), the log2 fold change is inactive: 0.061.
In the case of CISD3 (UniProt P0C7P0), the log2 fold change was inactive: 0.086.
For CLCN2 (UniProt P51788), the log2 fold change is inactive: 0.008.
For the target CLUAP1 (UniProt I3L2E1), the log2 fold change was inactive: 0.095.
Same read-out and setting: the figure for CLTA (UniProt P09496) is inactive: -0.054; for CKAP2L (UniProt Q8IYA6) it is inactive: -0.002.
On to CLK3 (UniProt P49761), for which the log2 fold change was inactive: -0.084.
CLIP1 isoform 2 (UniProt P30622): the log2 fold change is inactive: 0.056.
Still for that read-out and setting: the value for CLTC (UniProt Q00610) was inactive: -0.042.
Consider CHD9 (UniProt Q3L8U1), for which the log2 fold change is inactive: -0.167.
CHSY1 (UniProt Q86X52): the log2 fold change is inactive: -0.172.
Consider CNBP (UniProt P62633), for which the log2 fold change is inactive: -0.164.
As for CLN6 (UniProt Q9NWW5), the log2 fold change was inactive: -0.055.
Same read-out and setting: the value for CLIP2 (UniProt Q9UDT6) was inactive: 0.057.
With CMTM4 (UniProt Q8IZR5), the log2 fold change was inactive: 0.153.
As for CLIC6 (UniProt Q96NY7), the log2 fold change is inactive: 0.021.
For the target CLINT1 isoform 3 (UniProt Q14677), the log2 fold change is inactive: 0.004.
On the same count and under the same terms, the figure for CLK1 isoform 3 (UniProt P49759) is inactive: -0.093; for CLASP1 isoform 4 (UniProt Q7Z460) it is inactive: 0.04.
For the target CHFR (UniProt Q96EP1), the log2 fold change is inactive: 0.066.
As for CLN3 (UniProt Q13286), the log2 fold change was inactive: 0.06.
Same read-out and setting: the value for CLN5 (UniProt O75503) was inactive: -0.039; that for CLCN6 isoform 5 (UniProt P51797) was inactive: 0.053.
As for CLEC16A isoform 2 (UniProt Q2KHT3), the log2 fold change is inactive: -0.054.
Regarding CMTM6 (UniProt Q9NX76), the log2 fold change was inactive: 0.018.
CHPF (UniProt Q8IZ52): the log2 fold change was inactive: -0.063.
The same measure, in the same setting: the figure for CHTF8 (UniProt P0CG13) is inactive: -0.107; for CLDN12 (UniProt P56749) it is inactive: -0.01.
